According to patent publication US11179452B2, “Antigen specific multi epitope vaccines” (priority 2006, dated 2021):
Some of these results come from one statement about several compounds together. No end group written: not given here.

System: PBL
Test: Proliferation of PBL, DC indirect presentation (peptide-pulsed autologous DC)
Type: cell-based, human
Conditions: naive donors; CPM sample / CPM control; representative of 5 experiments
Experimental: Human PBMC were separated from buffy coat samples of naive donors using Ficoll UNI-SEPmaxi tube. Separated cells were suspended in RPMI medium supplemented with 10% FCS, L-Glutamine, Sodium Pyruvate, MEM-EAGLE non-essential amino-acids, HEPES and Gentamycin Sulphate (Bet-Haemek Industries, IL) and cultivated for 4 h at 37° C. in a culture dish (Corning 150 mm×25 mm). Adherent cells were collected and cultured for 7 days in serum free DCCM-1 medium supplemented with L-Glutamine, huIL-4 (1000 IU/ml) (Cytolab IL) and GM-CSF-80 ug/ml (Cytolab IL). On day seven floating cells were collected and loaded with 50 ug/ml of examined peptide for 18 h at 37° C.
Proliferation analysis was conducted in three different methods. In all three methods, plates were cultured for 3-5 days under visual control and then 0.5 […]Cu/well of 3[H] (Amersham) was added for additional culture of to 18 h at 37° C. In the last step, plates were harvested and the radioactive counts were measured in a □ counter. • 1. […]
In the first set of experiments, the 21mer ImMucin, its different 9mer epitopes and other control epitopes (Table 3) were evaluated in proliferation assays with the aim of finding their optimal mode of presentation, stimulated dose as well as their peak of activity (time wise). […]

Row | Sequence | PBL Index of stimulation (SI) via DC
1 | TQSPFFLLL [VXL-4, TQSPFFLLL] | > 3
2 | SPFFLLLLL [VXL-5, SPFFLLLLL] | > 3
